# Laboratory results reported in the supplement of paper PMC12067093, “Discovery and optimisation of a covalent ligand for TRIM25 and its application to targeted protein ubiquitination” (Chemical Science, 2025).
# The other results are listed elsewhere or left out.
# Compound: Cc1cc(ccc1-c1ccccc1)C(=O)N1CCCN(CC1)C(=O)CCl [compound 10]
# Test: probe-labelled cysteine peptide fold change vs DMSO (competition) (log2 fold change); higher = less target engagement (more negative = stronger competition)
# Settings: THP-1, incubation time: 4 h
# 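Also: competitive profiling in live THP-1 cells: cysteine peptides tagged with an iodoacetamide desthiobiotin (IA-DTB) probe, intensity after compound treatment relative to DMSO-treated cells.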
target,measurement,setting,value
BCAP29_Q9UHQ4_171_DEECVLEAENK (UniProt Q9UHQ4),probe-labelled cysteine peptide fold change,10 µM,-0.0125
same,probe-labelled cysteine peptide fold change,50 µM,0.145
BANF1_O75531_77_DCFGCLR (UniProt O75531),probe-labelled cysteine peptide fold change,10 µM,0.167
same,probe-labelled cysteine peptide fold change,50 µM,-0.0799
BCAP29_Q9UHQ4_171_SHGKDEECVLEAENK (UniProt Q9UHQ4),probe-labelled cysteine peptide fold change,10 µM,-0.122
same,probe-labelled cysteine peptide fold change,50 µM,-0.347
BIRC6_Q9NR09_4666_VCLSILNTWHGRPEEK (UniProt Q9NR09),probe-labelled cysteine peptide fold change,10 µM,0.0507
same,probe-labelled cysteine peptide fold change,50 µM,0.0823
BAZ2A_Q9UIF9_1802_NHHSDLTFCEIILMEMESHDAAWPFLEPVNPR (UniProt Q9UIF9),probe-labelled cysteine peptide fold change,10 µM,-0.0363
same,probe-labelled cysteine peptide fold change,50 µM,-0.652
BIRC6_Q9NR09_4183_KHAQCLLR (UniProt Q9NR09),probe-labelled cysteine peptide fold change,10 µM,-0.0476
same,probe-labelled cysteine peptide fold change,50 µM,-1.02
BLMH_Q13867_326_DGEAVWFGCDVGK (UniProt Q13867),probe-labelled cysteine peptide fold change,10 µM,-0.0396
same,probe-labelled cysteine peptide fold change,50 µM,-0.0318
BOD1L1_Q8NFC6_876_CDMDSTNMDSNLKPEEVVHK (UniProt Q8NFC6),probe-labelled cysteine peptide fold change,10 µM,0.0401
same,probe-labelled cysteine peptide fold change,50 µM,-0.148
BIRC6_Q9NR09_1293_GCDLLQEVSVTIRR (UniProt Q9NR09),probe-labelled cysteine peptide fold change,10 µM,0.00797
same,probe-labelled cysteine peptide fold change,50 µM,-0.251
BAZ2A_Q9UIF9_828_KPTEDMCLTDHQPLPDFSR (UniProt Q9UIF9),probe-labelled cysteine peptide fold change,10 µM,-0.178
same,probe-labelled cysteine peptide fold change,50 µM,-0.00316
BCAT1_P54687_221_GGTGDCK (UniProt P54687),probe-labelled cysteine peptide fold change,10 µM,-0.0709
same,probe-labelled cysteine peptide fold change,50 µM,-0.199
BCOR_Q6W2J9_1080_SVTLEEAIAEQNESERCEYSVGNK (UniProt Q6W2J9),probe-labelled cysteine peptide fold change,10 µM,-0.297
same,probe-labelled cysteine peptide fold change,50 µM,-0.343
BOP1_Q14137_373_CLDLYLCPR (UniProt Q14137),probe-labelled cysteine peptide fold change,10 µM,-0.132
same,probe-labelled cysteine peptide fold change,50 µM,-0.316
BPNT1_O95861_206_LVTDCVAAMNPDAVLR (UniProt O95861),probe-labelled cysteine peptide fold change,10 µM,-0.0424
same,probe-labelled cysteine peptide fold change,50 µM,0.0172
B4GALT7_Q9UBV7_307_TALSVGGAPCTVLNIMLDCDK (UniProt Q9UBV7),probe-labelled cysteine peptide fold change,10 µM,0.311
same,probe-labelled cysteine peptide fold change,50 µM,0.701
BCAT1_P54687_293_RCILDLAHQWGEFK (UniProt P54687),probe-labelled cysteine peptide fold change,10 µM,0.0115
same,probe-labelled cysteine peptide fold change,50 µM,-0.332
AXL_P30530_852_DSCSCLTAAEVHPAGR (UniProt P30530),probe-labelled cysteine peptide fold change,10 µM,-0.0679
same,probe-labelled cysteine peptide fold change,50 µM,-0.0354
BAG3_O95817_151_QCGQVAAAAAAQPPASHGPER (UniProt O95817),probe-labelled cysteine peptide fold change,10 µM,0.136
same,probe-labelled cysteine peptide fold change,50 µM,0.416
BPNT1_O95861_243_ASAYVFASPGCKK (UniProt O95861),probe-labelled cysteine peptide fold change,10 µM,-0.187
same,probe-labelled cysteine peptide fold change,50 µM,-0.704
BOP1_Q14137_620_KLMPNCK (UniProt Q14137),probe-labelled cysteine peptide fold change,10 µM,-0.0395
same,probe-labelled cysteine peptide fold change,50 µM,-0.278
BIRC6_Q9NR09_355_HSPNCPFVK (UniProt Q9NR09),probe-labelled cysteine peptide fold change,10 µM,0.0596
same,probe-labelled cysteine peptide fold change,50 µM,-0.108
BMS1_Q14692_757_FLVEAPHDWDLEEVMNSIRDCFVTGK (UniProt Q14692),probe-labelled cysteine peptide fold change,10 µM,0.0114
same,probe-labelled cysteine peptide fold change,50 µM,-0.129
BABAM2_Q9NXR7_245+254_IEHALGGSSALHIPAFPGGGCLIDYVPQVCHLLTNK (UniProt Q9NXR7),probe-labelled cysteine peptide fold change,10 µM,0.00719
same,probe-labelled cysteine peptide fold change,50 µM,0.273
BLM_P54132_799_FVIDEAHCVSQWGHDFR (UniProt P54132),probe-labelled cysteine peptide fold change,10 µM,0.0276
same,probe-labelled cysteine peptide fold change,50 µM,0.0804
BOD1L1_Q8NFC6_2599_CEQDLTIK (UniProt Q8NFC6),probe-labelled cysteine peptide fold change,10 µM,-0.37
same,probe-labelled cysteine peptide fold change,50 µM,-0.337
BAG6_P46379_345+349_CNLACTPPR (UniProt P46379),probe-labelled cysteine peptide fold change,10 µM,-0.175
same,probe-labelled cysteine peptide fold change,50 µM,-0.352
BAZ1B_Q9UIG0_1393+1395_CSCGSYR (UniProt Q9UIG0),probe-labelled cysteine peptide fold change,10 µM,0.00371
same,probe-labelled cysteine peptide fold change,50 µM,-0.426
BAZ1B_Q9UIG0_1420_QVFTNAEVYNCR (UniProt Q9UIG0),probe-labelled cysteine peptide fold change,10 µM,-0.115
same,probe-labelled cysteine peptide fold change,50 µM,-0.382
BPTF_Q12830_1357_LASADDIGTLICK (UniProt Q12830),probe-labelled cysteine peptide fold change,10 µM,-0.334
same,probe-labelled cysteine peptide fold change,50 µM,-0.457
BMI1_P35226_166_CPAAMTVMHLR (UniProt P35226),probe-labelled cysteine peptide fold change,10 µM,-0.0668
same,probe-labelled cysteine peptide fold change,50 µM,0.04
BPGM_P07738_145_VCDVPLDQLPR (UniProt P07738),probe-labelled cysteine peptide fold change,10 µM,-0.153
same,probe-labelled cysteine peptide fold change,50 µM,0.073
BAG6_P46379_349_CNLACTPPR (UniProt P46379),probe-labelled cysteine peptide fold change,10 µM,-0.198
same,probe-labelled cysteine peptide fold change,50 µM,-0.482
BCAR3_O75815_408_GSDSQLCPKPPPKPCK (UniProt O75815),probe-labelled cysteine peptide fold change,10 µM,-0.265
same,probe-labelled cysteine peptide fold change,50 µM,-0.992
BAZ1A_Q9NRL2_1177_GHHTYCVRPK (UniProt Q9NRL2),probe-labelled cysteine peptide fold change,10 µM,0.167
same,probe-labelled cysteine peptide fold change,50 µM,-0.00209
BMP2K_Q9NSY1_160_LQTGFTEPEVLQIFCDTCEAVAR (UniProt Q9NSY1),probe-labelled cysteine peptide fold change,10 µM,-0.845
same,probe-labelled cysteine peptide fold change,50 µM,0.362
BCAT1_P54687_338_EMFGSGTACVVCPVSDILYK (UniProt P54687),probe-labelled cysteine peptide fold change,10 µM,0.114
same,probe-labelled cysteine peptide fold change,50 µM,0.135
BAZ1A_Q9NRL2_586_GGFDATDDACMELR (UniProt Q9NRL2),probe-labelled cysteine peptide fold change,10 µM,-0.11
same,probe-labelled cysteine peptide fold change,50 µM,-0.152
BIRC6_Q9NR09_381_GEHTQNVPLSVTLATSPAQFPCTDGTDR (UniProt Q9NR09),probe-labelled cysteine peptide fold change,10 µM,-0.0316
same,probe-labelled cysteine peptide fold change,50 µM,-0.166
BPTF_Q12830_1241_EGCQSDSMR (UniProt Q12830),probe-labelled cysteine peptide fold change,10 µM,-0.163
same,probe-labelled cysteine peptide fold change,50 µM,-0.204

# 2 entries from above, as tab-separated lines.
target	measurement	setting	value
BLM_P54132_799_FVIDEAHCVSQWGHDFR (UniProt P54132)	probe-labelled cysteine peptide fold change	50 µM	0.0804
BOD1L1_Q8NFC6_2599_CEQDLTIK (UniProt Q8NFC6)	probe-labelled cysteine peptide fold change	10 µM	-0.37

# Part of the list above, reformatted:
target | measurement | setting | value
BAZ2A_Q9UIF9_1802_NHHSDLTFCEIILMEMESHDAAWPFLEPVNPR (UniProt Q9UIF9) | probe-labelled cysteine peptide fold change | 10 µM | -0.0363
BAZ1A_Q9NRL2_1177_GHHTYCVRPK (UniProt Q9NRL2) | probe-labelled cysteine peptide fold change | 10 µM | 0.167
